Measurements from the supplement of paper PMC10849652.
Some of the results follow.

Sequences of proteins named here, by UniProt entry; tags and fusion partners are left off. A change or cut given only in a name is not applied to a line headed by its entry.
UniProt Q9H7P9: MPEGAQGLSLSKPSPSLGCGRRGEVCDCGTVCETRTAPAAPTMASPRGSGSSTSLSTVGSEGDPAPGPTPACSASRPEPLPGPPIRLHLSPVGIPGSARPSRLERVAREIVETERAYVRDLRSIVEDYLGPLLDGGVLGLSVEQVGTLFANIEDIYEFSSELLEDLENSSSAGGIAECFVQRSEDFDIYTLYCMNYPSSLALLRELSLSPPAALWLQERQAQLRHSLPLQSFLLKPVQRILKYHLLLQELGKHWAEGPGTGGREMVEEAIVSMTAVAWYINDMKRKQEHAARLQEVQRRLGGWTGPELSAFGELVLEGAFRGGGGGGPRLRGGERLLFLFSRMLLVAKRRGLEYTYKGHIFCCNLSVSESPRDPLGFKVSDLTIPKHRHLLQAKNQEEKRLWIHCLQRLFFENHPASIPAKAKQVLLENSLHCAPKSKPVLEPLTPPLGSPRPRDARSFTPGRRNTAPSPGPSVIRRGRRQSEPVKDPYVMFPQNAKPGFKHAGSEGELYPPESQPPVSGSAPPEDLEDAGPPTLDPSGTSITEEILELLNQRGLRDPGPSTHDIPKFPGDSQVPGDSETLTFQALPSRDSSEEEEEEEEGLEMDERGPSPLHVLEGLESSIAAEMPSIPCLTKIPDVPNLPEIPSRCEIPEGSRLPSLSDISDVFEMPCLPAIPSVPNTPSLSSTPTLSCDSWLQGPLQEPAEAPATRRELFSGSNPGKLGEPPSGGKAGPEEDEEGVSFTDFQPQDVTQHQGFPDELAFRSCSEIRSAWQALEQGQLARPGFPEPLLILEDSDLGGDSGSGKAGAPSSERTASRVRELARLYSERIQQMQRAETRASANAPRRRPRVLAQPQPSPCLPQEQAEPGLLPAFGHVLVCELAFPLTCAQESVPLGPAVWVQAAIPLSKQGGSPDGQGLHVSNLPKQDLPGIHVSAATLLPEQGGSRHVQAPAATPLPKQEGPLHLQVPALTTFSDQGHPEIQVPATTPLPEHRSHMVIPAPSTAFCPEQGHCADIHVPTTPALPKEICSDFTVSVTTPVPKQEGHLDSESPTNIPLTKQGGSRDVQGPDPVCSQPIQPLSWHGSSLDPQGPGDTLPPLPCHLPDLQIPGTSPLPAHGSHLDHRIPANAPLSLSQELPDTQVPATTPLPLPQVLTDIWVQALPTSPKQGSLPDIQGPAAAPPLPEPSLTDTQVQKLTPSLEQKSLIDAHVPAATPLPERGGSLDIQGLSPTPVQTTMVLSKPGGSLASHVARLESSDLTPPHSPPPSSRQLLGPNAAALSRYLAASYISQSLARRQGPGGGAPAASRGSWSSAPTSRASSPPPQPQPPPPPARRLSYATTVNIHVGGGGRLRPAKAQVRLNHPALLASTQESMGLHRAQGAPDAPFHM
UniProt Q8N2A8: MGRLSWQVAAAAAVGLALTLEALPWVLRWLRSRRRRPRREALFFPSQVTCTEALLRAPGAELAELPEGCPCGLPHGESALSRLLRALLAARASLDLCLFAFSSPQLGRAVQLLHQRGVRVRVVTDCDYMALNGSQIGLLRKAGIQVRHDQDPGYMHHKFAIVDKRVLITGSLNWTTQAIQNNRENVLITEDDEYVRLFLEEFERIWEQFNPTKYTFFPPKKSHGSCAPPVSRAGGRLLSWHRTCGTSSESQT
UniProt P78337, whole entry, looked up: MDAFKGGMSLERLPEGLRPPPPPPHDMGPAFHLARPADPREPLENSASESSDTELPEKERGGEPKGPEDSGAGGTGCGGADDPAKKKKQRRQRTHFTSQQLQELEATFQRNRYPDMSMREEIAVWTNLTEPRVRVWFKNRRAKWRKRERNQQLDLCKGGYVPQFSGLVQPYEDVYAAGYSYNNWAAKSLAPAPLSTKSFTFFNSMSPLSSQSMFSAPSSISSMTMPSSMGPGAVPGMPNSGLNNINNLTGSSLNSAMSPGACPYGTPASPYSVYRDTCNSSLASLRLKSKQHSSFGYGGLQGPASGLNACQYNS
UniProt O14986: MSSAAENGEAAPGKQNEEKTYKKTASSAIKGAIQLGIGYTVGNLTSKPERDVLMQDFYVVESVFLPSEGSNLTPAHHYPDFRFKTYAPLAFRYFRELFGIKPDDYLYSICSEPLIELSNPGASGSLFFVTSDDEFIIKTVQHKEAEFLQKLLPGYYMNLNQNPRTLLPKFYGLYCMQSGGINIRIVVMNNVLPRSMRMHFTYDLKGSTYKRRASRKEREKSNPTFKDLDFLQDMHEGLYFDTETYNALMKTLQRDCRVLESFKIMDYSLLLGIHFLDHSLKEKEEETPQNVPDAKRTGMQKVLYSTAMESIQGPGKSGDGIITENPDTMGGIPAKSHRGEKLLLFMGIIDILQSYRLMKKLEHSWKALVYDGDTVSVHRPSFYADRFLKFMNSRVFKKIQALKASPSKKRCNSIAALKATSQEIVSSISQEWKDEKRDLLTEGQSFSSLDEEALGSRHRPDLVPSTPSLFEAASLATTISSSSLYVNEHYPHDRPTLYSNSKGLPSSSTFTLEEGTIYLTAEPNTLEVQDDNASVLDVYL
UniProt Q99569: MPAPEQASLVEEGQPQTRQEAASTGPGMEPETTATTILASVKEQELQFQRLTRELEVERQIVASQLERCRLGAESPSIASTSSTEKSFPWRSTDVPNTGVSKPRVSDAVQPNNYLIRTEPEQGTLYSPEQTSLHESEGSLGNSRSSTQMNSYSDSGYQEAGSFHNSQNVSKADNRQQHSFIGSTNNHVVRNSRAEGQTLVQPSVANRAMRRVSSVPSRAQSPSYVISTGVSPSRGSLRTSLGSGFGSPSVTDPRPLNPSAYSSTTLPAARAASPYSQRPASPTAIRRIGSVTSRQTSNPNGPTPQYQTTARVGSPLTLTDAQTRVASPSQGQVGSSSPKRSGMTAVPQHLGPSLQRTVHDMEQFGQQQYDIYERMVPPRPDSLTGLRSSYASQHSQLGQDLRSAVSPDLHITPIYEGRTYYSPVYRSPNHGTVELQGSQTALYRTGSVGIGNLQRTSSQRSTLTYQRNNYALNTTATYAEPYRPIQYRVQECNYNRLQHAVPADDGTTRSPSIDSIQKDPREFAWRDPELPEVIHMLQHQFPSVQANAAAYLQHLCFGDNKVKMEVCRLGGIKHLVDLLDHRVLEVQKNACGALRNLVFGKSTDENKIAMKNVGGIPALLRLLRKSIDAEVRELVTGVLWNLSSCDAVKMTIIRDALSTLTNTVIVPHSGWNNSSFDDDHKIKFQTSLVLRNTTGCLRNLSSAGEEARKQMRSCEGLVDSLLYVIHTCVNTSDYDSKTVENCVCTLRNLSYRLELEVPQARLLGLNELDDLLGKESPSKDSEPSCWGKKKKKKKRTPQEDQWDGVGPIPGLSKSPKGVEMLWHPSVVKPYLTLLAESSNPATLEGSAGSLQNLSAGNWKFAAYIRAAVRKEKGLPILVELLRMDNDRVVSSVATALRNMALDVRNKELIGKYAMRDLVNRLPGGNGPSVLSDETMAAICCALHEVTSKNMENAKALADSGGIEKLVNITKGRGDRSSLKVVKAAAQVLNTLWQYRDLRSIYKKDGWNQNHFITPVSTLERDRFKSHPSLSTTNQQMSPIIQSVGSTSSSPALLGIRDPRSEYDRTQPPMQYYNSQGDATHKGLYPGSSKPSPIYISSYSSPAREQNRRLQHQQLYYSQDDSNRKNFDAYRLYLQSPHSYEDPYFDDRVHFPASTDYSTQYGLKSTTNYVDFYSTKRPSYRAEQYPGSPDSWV
UniProt Q9BSJ6: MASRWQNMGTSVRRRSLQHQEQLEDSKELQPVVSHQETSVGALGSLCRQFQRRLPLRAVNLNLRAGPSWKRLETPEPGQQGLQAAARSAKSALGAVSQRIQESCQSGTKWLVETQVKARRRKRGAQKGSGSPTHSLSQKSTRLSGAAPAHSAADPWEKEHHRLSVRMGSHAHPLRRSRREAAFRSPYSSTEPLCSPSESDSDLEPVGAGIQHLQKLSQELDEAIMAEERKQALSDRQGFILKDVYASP
UniProt Q99453, whole entry, looked up: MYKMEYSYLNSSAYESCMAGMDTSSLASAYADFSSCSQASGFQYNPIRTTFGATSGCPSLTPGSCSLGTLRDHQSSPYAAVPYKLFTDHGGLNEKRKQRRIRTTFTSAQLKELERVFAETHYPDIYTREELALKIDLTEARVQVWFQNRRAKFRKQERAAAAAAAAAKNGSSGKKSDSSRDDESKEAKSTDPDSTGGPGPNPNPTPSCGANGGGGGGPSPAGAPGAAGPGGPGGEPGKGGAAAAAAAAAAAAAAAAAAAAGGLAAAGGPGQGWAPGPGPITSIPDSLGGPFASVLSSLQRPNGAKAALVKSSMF
UniProt Q6P5Z2: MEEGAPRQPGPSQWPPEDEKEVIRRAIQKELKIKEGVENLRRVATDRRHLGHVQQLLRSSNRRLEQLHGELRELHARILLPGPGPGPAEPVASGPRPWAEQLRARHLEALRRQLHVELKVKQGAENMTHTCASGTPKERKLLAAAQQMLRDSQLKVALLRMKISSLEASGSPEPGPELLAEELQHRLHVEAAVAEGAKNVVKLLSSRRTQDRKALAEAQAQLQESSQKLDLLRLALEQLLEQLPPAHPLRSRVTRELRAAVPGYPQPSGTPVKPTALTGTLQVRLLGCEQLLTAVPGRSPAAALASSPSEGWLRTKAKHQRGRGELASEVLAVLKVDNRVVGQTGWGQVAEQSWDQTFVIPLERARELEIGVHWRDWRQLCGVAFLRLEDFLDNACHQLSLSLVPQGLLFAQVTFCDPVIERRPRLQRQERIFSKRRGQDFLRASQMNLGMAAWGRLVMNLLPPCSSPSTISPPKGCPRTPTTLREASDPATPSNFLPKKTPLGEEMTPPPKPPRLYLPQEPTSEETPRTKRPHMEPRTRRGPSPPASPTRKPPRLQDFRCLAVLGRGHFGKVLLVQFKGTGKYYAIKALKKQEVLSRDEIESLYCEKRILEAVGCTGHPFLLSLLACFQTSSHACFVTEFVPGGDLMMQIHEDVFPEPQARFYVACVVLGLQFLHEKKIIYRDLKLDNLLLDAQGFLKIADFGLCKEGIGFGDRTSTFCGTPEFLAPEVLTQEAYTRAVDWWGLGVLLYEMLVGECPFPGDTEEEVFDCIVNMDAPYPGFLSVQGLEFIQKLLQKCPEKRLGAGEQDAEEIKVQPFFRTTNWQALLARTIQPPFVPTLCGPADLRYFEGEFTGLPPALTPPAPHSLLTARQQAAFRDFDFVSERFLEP
UniProt Q9P1W9: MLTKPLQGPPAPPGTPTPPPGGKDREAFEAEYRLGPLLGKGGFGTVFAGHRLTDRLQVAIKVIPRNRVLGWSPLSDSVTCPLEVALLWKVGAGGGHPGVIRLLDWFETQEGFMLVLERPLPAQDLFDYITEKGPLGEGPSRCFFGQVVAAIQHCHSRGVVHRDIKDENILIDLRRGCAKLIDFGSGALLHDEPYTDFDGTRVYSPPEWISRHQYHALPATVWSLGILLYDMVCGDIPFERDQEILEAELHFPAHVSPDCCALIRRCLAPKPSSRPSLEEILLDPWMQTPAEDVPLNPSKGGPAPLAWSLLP
UniProt Q53GA4: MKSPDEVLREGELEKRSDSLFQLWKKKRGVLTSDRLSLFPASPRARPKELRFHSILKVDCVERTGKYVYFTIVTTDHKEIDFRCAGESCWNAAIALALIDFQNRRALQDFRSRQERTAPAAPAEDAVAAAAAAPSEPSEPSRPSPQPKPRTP
UniProt Q8N4B1: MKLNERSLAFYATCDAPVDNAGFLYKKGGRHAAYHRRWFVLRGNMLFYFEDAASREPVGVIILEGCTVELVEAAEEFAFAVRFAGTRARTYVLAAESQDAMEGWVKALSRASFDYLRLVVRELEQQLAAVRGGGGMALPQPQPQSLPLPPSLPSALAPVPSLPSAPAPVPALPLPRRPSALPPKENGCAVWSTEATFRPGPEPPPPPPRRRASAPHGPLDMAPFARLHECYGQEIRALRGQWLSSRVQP
UniProt Q8N2W9: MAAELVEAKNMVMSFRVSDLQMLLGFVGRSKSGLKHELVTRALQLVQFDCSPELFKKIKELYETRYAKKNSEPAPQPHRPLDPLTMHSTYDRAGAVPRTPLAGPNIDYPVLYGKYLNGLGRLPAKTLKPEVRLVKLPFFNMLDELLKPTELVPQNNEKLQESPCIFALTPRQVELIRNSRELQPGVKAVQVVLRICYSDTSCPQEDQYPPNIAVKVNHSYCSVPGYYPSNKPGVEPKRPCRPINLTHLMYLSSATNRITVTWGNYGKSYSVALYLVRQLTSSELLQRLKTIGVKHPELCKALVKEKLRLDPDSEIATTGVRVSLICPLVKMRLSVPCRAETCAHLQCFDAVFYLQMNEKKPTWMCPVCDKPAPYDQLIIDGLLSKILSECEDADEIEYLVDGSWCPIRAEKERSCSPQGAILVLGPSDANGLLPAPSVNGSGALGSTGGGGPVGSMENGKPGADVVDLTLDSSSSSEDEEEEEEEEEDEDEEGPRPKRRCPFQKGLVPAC
PIGBOS1, A0A0B4J2F0, UniProt A0A0B4J2F0, whole entry, looked up: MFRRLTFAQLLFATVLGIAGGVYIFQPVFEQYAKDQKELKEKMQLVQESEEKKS

What was measured:
Experiment in all cases: log2 fold change, soluble protein after heating vs DMSO (PISA); higher = thermal stabilisation; K562 lysate, 10 uM; active = over 0.2 and 3.5 SD of the protein, either way, in both replicates (recomputed)
crizotinib = compound: C[C@@H](Oc1cc(-c2cnn(C3CCNCC3)c2)cnc1N)c1c(Cl)ccc(F)c1Cl [crizotinib]
Summary of the method: (§1)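 Quantification was by TMTpro 16plex LC-MS/MS with equalised channel sums, applied to the supernatant after 21,000xg for 90 min. Samples were crude K562 extract at 1 mg/mL protein in PBS pH 7.4 with 1 mM MgCl2, treated with 10 μM compound for 30 min, heated for 3 min across 48°C-58°C, pooled and brought to 0.5% NP-40 at 4°C. Values are log-two fold changes in thermal stability relative to solvent controls, from duplicates.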

[1] = compound: C[C@H](C1=CC=C(C=C1)C(=O)NC2=C3C=CNC3=NC=C2)N
Summary of the method: as §1

duvelisib = compound: C[C@H](Nc1ncnc2nc[nH]c12)c1cc2cccc(Cl)c2c(=O)n1-c1ccccc1 [duvelisib]
Summary of the method: as §1

gandotinib = compound: Cc1cc(Nc2cc(CN3CCOCC3)c3nc(C)c(Cc4ccc(Cl)cc4F)n3n2)n[nH]1 [gandotinib]
Summary of the method: as §1

doramapimod = compound: Cc1ccc(-n2nc(C(C)(C)C)cc2NC(=O)Nc2ccc(OCCN3CCOCC3)c3ccccc23)cc1 [doramapimod]
Summary of the method: as §1

[2] = compound: Cc1cccc(CC(=O)N2CCc3c2ccc(-c2cn(C)c4ncnc(N)c24)c3F)n1
Summary of the method: as §1

pictilisib = compound: CS(=O)(=O)N1CCN(Cc2cc3nc(-c4cccc5[nH]ncc45)nc(N4CCOCC4)c3s2)CC1 [pictilisib]
Summary of the method: as §1

tozasertib = compound: Cc1cc(Nc2cc(N3CCN(C)CC3)nc(Sc3ccc(NC(=O)C4CC4)cc3)n2)n[nH]1 [tozasertib]
Summary of the method: as §1

bafetinib = compound: Cc1ccc(NC(=O)c2ccc(CN3CC[C@H](N(C)C)C3)c(C(F)(F)F)c2)cc1Nc1nccc(-c2cncnc2)n1 [bafetinib]
Summary of the method: as §1

lapatinib = compound: CS(=O)(=O)CCNCc1ccc(-c2ccc3ncnc(Nc4ccc(OCc5cccc(F)c5)c(Cl)c4)c3c2)o1 [lapatinib]
Summary of the method: as §1

Measured: log2 fold change

PLEKHA3 (UniProt Q9HB20)
inactive: crizotinib -0.019 | [1] -0.213 | duvelisib 0.039 | gandotinib 0.029 | doramapimod -0.056 | [2] 0.124

PIM1 isoform 2 (UniProt P11309)
inactive: pictilisib 0.084 | crizotinib -0.107 | [1] 0.096 | duvelisib 0.081 | gandotinib -0.121 | tozasertib 0.046 | doramapimod -0.012 | bafetinib -0.043 | [2] -0.025

PHF8 (UniProt Q9UPP1)
inactive: crizotinib -0.112 | [1] -0.404 | gandotinib 0.11 | tozasertib -0.324 | doramapimod 0.061 | [2] 0.195

PLCB4 isoform 4 (UniProt Q15147)
inactive: lapatinib -0.264 | tozasertib 0.198

PLEKHG2 (UniProt Q9H7P9)
inactive: [1] 0.046 | duvelisib -0.161 | gandotinib -0.017 | tozasertib -0.001 | [2] 0.195

PLD6 (UniProt Q8N2A8)
inactive: duvelisib 0.112

PITX1 (UniProt P78337)
inactive: pictilisib 0.14 | crizotinib -0.013 | duvelisib -0.018 | tozasertib 0.097 | doramapimod 0.065 | bafetinib -0.009

PIAS1 isoform 2 (UniProt O75925)
inactive: crizotinib 0.024 | [1] -0.048 | duvelisib 0.064 | gandotinib 0.036 | doramapimod 0.21 | [2] 0.361

PLEKHA8 (UniProt Q96JA3)
inactive: duvelisib 0.083 | tozasertib 0.016

PHLDB3 (UniProt Q6NSJ2)
inactive: crizotinib -0.014 | doramapimod -0.005

PITPNM1 (UniProt O00562)
inactive: pictilisib -0.1 | crizotinib -0.053 | doramapimod -0.066 | bafetinib 0.055

PIP5K1B isoform 2 (UniProt O14986)
inactive: pictilisib 0.197 | crizotinib 0.137 | doramapimod 0.079 | bafetinib -0.048

PKP4 (UniProt Q99569)
inactive: [1] -0.154 | duvelisib 0.046 | gandotinib 0.026 | tozasertib -0.236 | [2] -0.03

PIGB (UniProt Q92521)
inactive: pictilisib 0.124 | crizotinib 0.004 | [1] -0.045 | gandotinib 0.021 | tozasertib -0.04 | doramapimod -0.051 | bafetinib -0.058 | [2] -0.006

PLEC isoform 3 (UniProt Q15149)
inactive: pictilisib -0.174 | crizotinib -0.056 | [1] -0.082 | gandotinib -0.225 | tozasertib 0.122 | doramapimod 0.102 | bafetinib -0.127 | [2] -0.005

PIMREG (UniProt Q9BSJ6)
inactive: pictilisib -0.15 | crizotinib 0.222 | [1] 0.175 | gandotinib 0.122 | doramapimod 0.184 | bafetinib -0.136 | [2] -0.157

Quoted at random: 2 records from the list
PHF8 (UniProt Q9UPP1)
inactive: crizotinib -0.112 | [1] -0.404 | gandotinib 0.11 | tozasertib -0.324 | doramapimod 0.061 | [2] 0.195

PIGB (UniProt Q92521)
inactive: pictilisib 0.124 | crizotinib 0.004 | [1] -0.045 | gandotinib 0.021 | tozasertib -0.04 | doramapimod -0.051 | bafetinib -0.058 | [2] -0.006

Continued:

PLAUR (UniProt Q03405)
inactive: [1] -0.05 | duvelisib 0.101 | gandotinib 0.123 | tozasertib 0.109 | [2] -0.139

PIGW (UniProt Q7Z7B1)
inactive: crizotinib -0.152 | duvelisib -0.054 | doramapimod -0.05

PHOSPHO2 (UniProt C9JD35)
inactive: crizotinib 0.02 | tozasertib 0.234 | doramapimod -0.084

PKMYT1 (UniProt Q99640)
inactive: crizotinib 0.054 | [1] 0.012 | duvelisib 0.003 | gandotinib -0.032 | tozasertib 0.024 | doramapimod 0.101 | [2] 0.028

PHF19 (UniProt Q5T6S3)
inactive: crizotinib 0.046 | doramapimod 0.021

PHC2 isoform 5 (UniProt Q8IXK0)
inactive: crizotinib -0.052 | [1] -0.047 | gandotinib 0.029 | tozasertib 0.049 | doramapimod 0.08 | [2] 0

PHOX2B (UniProt Q99453)
inactive: pictilisib 0.014 | crizotinib -0.246 | duvelisib 0.265 | tozasertib 0.072 | doramapimod 0.191 | bafetinib -0.29

PKN3 (UniProt Q6P5Z2)
inactive: pictilisib -0.073 | crizotinib -0.123 | [1] 0.026 | duvelisib 0.024 | gandotinib -0.119 | tozasertib -0.064 | doramapimod -0.091 | bafetinib -0.252 | [2] 0.18

PIK3AP1 (UniProt Q6ZUJ8)
inactive: pictilisib -0.004 | crizotinib -0.029 | duvelisib 0.086 | tozasertib -0.144 | doramapimod -0.004 | bafetinib -0.05

PIM2 (UniProt Q9P1W9)
inactive: [1] 0.006 | duvelisib 0.01 | gandotinib -0.208 | [2] -0.152

PHLDA2 (UniProt Q53GA4)
inactive: crizotinib 0.066 | duvelisib -0.021 | doramapimod 0.007

PHETA1 isoform 4 (UniProt Q8N4B1)
inactive: [1] 0 | gandotinib 0.086 | [2] -0.001

PLEK (UniProt P08567)
inactive: crizotinib -0.06 | tozasertib 0.026 | doramapimod -0.127

PIAS4 (UniProt Q8N2W9)
inactive: crizotinib -0.009 | [1] -0.092 | duvelisib 0.039 | gandotinib 0.128 | tozasertib 0.049 | doramapimod 0.03 | [2] 0.243

PHLPP1 (UniProt O60346)
inactive: pictilisib -0.224 | crizotinib -0.008 | [1] 0.021 | duvelisib 0.174 | gandotinib 0.016 | doramapimod 0.045 | bafetinib 0.068 | [2] -0.003

PLEKHA2 (UniProt Q9HB19)
inactive: pictilisib -0.044 | crizotinib -0.093 | [1] 0.128 | duvelisib -0.103 | gandotinib 0.104 | doramapimod 0.053 | bafetinib -0.03 | [2] -0.051

PIDD1 (UniProt Q9HB75)
inactive: duvelisib -0.291

PIGBOS1, A0A0B4J2F0
inactive: crizotinib 0.042 | [1] 0.236 | gandotinib -0.197 | doramapimod 0.088 | [2] -0.205

PIAS2 (UniProt O75928)
inactive: crizotinib -0.045 | duvelisib 0.075 | tozasertib 0.048 | doramapimod -0.007

PHF20 (UniProt Q9BVI0)
inactive: crizotinib -0.146 | doramapimod 0.017

PGM1 isoform 2 (UniProt P36871)
inactive: duvelisib -0.394 | tozasertib 0.039

PHC1 (UniProt P78364)
inactive: pictilisib -0.025 | crizotinib 0.063 | duvelisib -0.025 | tozasertib 0.022 | doramapimod -0.254 | bafetinib 0

PHF19 isoform 2 (UniProt Q5T6S3)
inactive: pictilisib -0.001 | [1] -0.029 | gandotinib -0.093 | tozasertib 0.092 | bafetinib -0.026 | [2] -0.023
